# Assay results as given in patent publication US20120122179.
# By UniProt entry, the sequences of proteins in these tests, tags left out. Residues count along the entry.
# UniProt P98139, 40-444: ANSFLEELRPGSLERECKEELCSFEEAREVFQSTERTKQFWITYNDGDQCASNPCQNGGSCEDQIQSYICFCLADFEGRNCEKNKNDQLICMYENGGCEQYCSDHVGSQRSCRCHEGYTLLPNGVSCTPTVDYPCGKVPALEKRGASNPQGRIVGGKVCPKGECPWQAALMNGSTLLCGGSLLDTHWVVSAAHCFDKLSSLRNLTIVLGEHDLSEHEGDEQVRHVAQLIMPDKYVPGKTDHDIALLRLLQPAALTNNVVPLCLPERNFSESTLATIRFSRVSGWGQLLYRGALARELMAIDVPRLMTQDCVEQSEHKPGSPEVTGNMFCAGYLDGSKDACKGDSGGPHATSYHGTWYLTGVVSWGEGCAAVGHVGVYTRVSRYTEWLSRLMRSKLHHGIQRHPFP
# UniProt P00740, 47-461: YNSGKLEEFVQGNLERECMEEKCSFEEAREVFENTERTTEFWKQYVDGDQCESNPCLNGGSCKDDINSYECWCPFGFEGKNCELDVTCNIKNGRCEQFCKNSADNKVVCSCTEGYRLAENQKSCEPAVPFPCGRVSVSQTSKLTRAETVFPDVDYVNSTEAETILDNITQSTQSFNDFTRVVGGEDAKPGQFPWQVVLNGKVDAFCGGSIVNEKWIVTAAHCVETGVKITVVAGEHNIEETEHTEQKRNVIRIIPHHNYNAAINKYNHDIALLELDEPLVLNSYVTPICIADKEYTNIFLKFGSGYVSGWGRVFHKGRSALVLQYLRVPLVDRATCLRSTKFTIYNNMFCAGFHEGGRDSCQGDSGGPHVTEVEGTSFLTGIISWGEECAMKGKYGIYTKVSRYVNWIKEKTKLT
# The exact form of at least one protein or probe is not confirmed. For some of these results: Where cells or extracts were used, other partners may take part. For some of these results: Negatives hold for the conditions tested. For some of these results: Tags and fusion partners may be left off the protein sequences shown.
# What was measured:
# Experiment in all cases: pull-down
# [1] = biological target: coagulation factor VII, rabbit plasma (Oryctolagus cuniculus) (UniProt P98139); details: 5' biotin; via PEG(C18)x4 spacer in SPR; affinity chromatography; 50 mM Tris, 10 mM CaCl2, 0.05 mM Mg salt, pH 7.5; 0.2% of FVII in EDTA eluate; protein in an extract; protein details: hydroxyapatite eluate enriched in rabbit FVII; single-stranded DNA
# [2] = biological target: T1, coagulation factor VII, plasma-derived (Homo sapiens) (UniProt P08709); details: 5' biotin, no spacer; affinity chromatography; 50 mM Tris, 10 mM CaCl2, 0.05 mM MgCl2, pH 7.5; eluted by 10 mM EDTA; purified native protein; protein details: plasma FVII purified to 98%; single-stranded DNA; variant of Mapt-2 (Mapt2)
# T1 sequence (looked up, limits assumed): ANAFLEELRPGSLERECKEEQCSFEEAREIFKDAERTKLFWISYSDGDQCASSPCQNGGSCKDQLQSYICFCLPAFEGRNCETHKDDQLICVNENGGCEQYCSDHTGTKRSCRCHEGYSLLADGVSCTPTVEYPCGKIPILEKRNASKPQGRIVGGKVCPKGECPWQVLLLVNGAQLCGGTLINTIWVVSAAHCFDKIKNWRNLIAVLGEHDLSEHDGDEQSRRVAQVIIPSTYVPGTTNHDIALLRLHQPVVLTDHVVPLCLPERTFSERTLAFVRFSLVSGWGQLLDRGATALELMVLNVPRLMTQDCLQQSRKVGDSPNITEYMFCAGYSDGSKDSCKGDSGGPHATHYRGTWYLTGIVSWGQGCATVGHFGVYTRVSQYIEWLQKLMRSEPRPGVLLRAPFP
# [3] = biological target: coagulation factor IX, plasma-derived (Homo sapiens) (UniProt P00740); details: directly chemically coupled to gel, no spacer; affinity chromatography; 50 mM Tris, 10 mM CaCl2, pH 7.5; EDTA eluate 100% FIX vs 51% start; purified native protein; protein details: Betafact (LFB), about 51-60% purity; single-stranded DNA
# [4] = biological target: coagulation factor IX, recombinant (Homo sapiens) (UniProt P00740); details: directly chemically coupled to gel, no spacer; affinity chromatography; 50 mM Tris, 10 mM CaCl2, pH 7.5; EDTA elution; >26-fold purity gain; protein in an extract; single-stranded DNA
sequence,measurement,setting,value
GGGAGATAGCCACGACCTATGCAGCCAGCCGCAGTGTAAGTGAATGCAGACATGGTCTAAGTGTCCAGGCTGTGCGAAAGC [Mapt-2 (Mapt2)],binding result,[1],no binding
CCGCACACCACGCGCATAATCCCGCGCACACGACTTGAAGTAGC [Mapt-2 core],binding result,[2],binds
GGGAGATAGCCACGACCTCGCACATGACTTGAAGTTAAACGCGAATTACAAACCCAGCCCCCTCCAGGCTGTGCGAAAGC [Mapt-1],binding result,[3],binds
same,binding result,[4],binds
